# Laboratory results from patent US20070087400A1, “Covalent tethering of functional groups to proteins and substrates therefor” (priority 2004, published 2007).
# Some results were stated once for a whole list of compounds, not compound by compound.
# Legend:
# [1] = Precipitation of DhaA proteins with (NH4)2SO4; assay type: physicochemical; details: 2 hours, 4° C.
# Procedure: Aliquots of the supernatant obtained from E. coli expressing DhaA (WT or one of the mutants) were treated with increasing concentrations of (NH4)2SO4. The proteins were exposed to each (NH4)2SO4 concentration for 2 hours (4° C.), pelleted by centrifugation, dialyzed overnight against buffer A, and resolved on SDS-PAGE.
# [2] = Thermostability analysis (residual activity by FP assay); assay type: physicochemical; details: 60 minute incubations
# Procedure: Thermostability analysis. The thermostability profiles of the DhaA mutants were determined by measuring the residual activity of the purified proteins following 15, 30 or 60 minute incubations at 4, 22, 30, 37, 42, 50 or 60° C. The FP assay was performed at room temperature (about 25° C.). […] For each clone, the labeling rate (slope of the linear range) was calculated for each condition. The rate observed following a 15 minute incubation at 4° C. was arbitrarily assigned as 100% activity. The residual activity (%) was calculated for each condition. To determine stability, for each incubation time, the % of residual activity was plotted against the incubation temperatures. To calculate half-life, for each incubation temperature, the % of residual activity was plotted against the incubation time. The time where 50% activity was lost was extrapolated from the graph.
# [3] = Tethering of R.Luc-DhaA fusions to streptavidin-coated plates via biotin Cl-alkane; details: biotin-C10H21N1O2—Cl 25 μM, 60 minutes at room temperature
# [4] = In vitro labeling of purified DhaA mutants, fluorimage gel analysis; assay type: binding; details: 2 and 30 minute time points, room temperature
molecule,measurement,setting,value
"DhaA.H272F: DhaA mutant, catalytic His272 replaced with Phe (protein, UniProt P0A3G2 1-293, looked up, variant H272F) Haloalkane dehalogenase: MSEIGTGFPFDPHYVEVLGERMHYVDVGPRDGTPVLFLHGNPTSSYLWRNIIPHVAPSHRCIAPDLIGMGKSDKPDLDYFFDDHVRYLDAFIEALGLEEVVLVIHDWGSALGFHWAKRNPERVKGIACMEFIRPIPTWDEWPEFARETFQAFRTADVGRELIIDQNAFIEGALPKCVVRPLTEVEMDHYREPFLKPVDREPLWRFPNELPIAGEPANIVALVEAYMNWLHQSPVPKLLFWGTPGVLIPPAEAARLAESLPNCKTVDIGPGLFYLQEDNPDLIGSEIARWLPAL",(NH4)2SO4 concentration at which the protein was precipitated,[1],45-70%
same,stable up to temperatures of,[2],≤ 40 °C
"R.Luc-connector-DhaA.WT: fusion of Renilla luciferase, connector and DhaA.WT (protein, left off: large carriers) SGSSLRYRGPSRAVDAAMSEIGTGFPFDPHYVEVLGERMHYVDVGPRDGTPVLFLHGNPTSSYLWRNIIPHVAPSHRCIAPDLIGMGKSDKPDLDYFFDDHVRYLDAFIEALGLEEVVLVIHDWGSALGFHWAKRNPERVKGIACMEFIRPIPTWDEWPEFARETFQAFRTADVGRELIIDQNAFIEGALPKCVVRPLTEVEMDHYREPFLKPVDREPLWRFPNELPIAGEPANIVALVEAYMNWLHQSPVPKLLFWGTPGVLIPPAEAARLAESLPNCKTVDIGPGLHYLQEDNPDLIGSEIARWLPALTGDYKDDDDK",efficiency of capturing (Renilla luciferase activity added to the plate that was captured),[3],< 0.1%
"DhaA.H272F YL: DhaA.H272F based mutant with Y273L (protein, UniProt P0A3G2 1-293, looked up, variant H272F Y273L) Haloalkane dehalogenase: MSEIGTGFPFDPHYVEVLGERMHYVDVGPRDGTPVLFLHGNPTSSYLWRNIIPHVAPSHRCIAPDLIGMGKSDKPDLDYFFDDHVRYLDAFIEALGLEEVVLVIHDWGSALGFHWAKRNPERVKGIACMEFIRPIPTWDEWPEFARETFQAFRTADVGRELIIDQNAFIEGALPKCVVRPLTEVEMDHYREPFLKPVDREPLWRFPNELPIAGEPANIVALVEAYMNWLHQSPVPKLLFWGTPGVLIPPAEAARLAESLPNCKTVDIGPGLFLLQEDNPDLIGSEIARWLPAL",time by which labeling appeared to be complete,[4],≤ 2 min
same,relatively unstable at temperatures above,[2],above 30 °C
"DhaA.H272F YC: DhaA.H272F based mutant with Y273C (protein, UniProt P0A3G2 1-293, looked up, variant H272F Y273C) Haloalkane dehalogenase: MSEIGTGFPFDPHYVEVLGERMHYVDVGPRDGTPVLFLHGNPTSSYLWRNIIPHVAPSHRCIAPDLIGMGKSDKPDLDYFFDDHVRYLDAFIEALGLEEVVLVIHDWGSALGFHWAKRNPERVKGIACMEFIRPIPTWDEWPEFARETFQAFRTADVGRELIIDQNAFIEGALPKCVVRPLTEVEMDHYREPFLKPVDREPLWRFPNELPIAGEPANIVALVEAYMNWLHQSPVPKLLFWGTPGVLIPPAEAARLAESLPNCKTVDIGPGLFCLQEDNPDLIGSEIARWLPAL",relatively unstable at temperatures above,[2],above 30 °C
"DhaA.H272F YM: DhaA.H272F based mutant with Y273M (protein, UniProt P0A3G2 1-293, looked up, variant H272F Y273M) Haloalkane dehalogenase: MSEIGTGFPFDPHYVEVLGERMHYVDVGPRDGTPVLFLHGNPTSSYLWRNIIPHVAPSHRCIAPDLIGMGKSDKPDLDYFFDDHVRYLDAFIEALGLEEVVLVIHDWGSALGFHWAKRNPERVKGIACMEFIRPIPTWDEWPEFARETFQAFRTADVGRELIIDQNAFIEGALPKCVVRPLTEVEMDHYREPFLKPVDREPLWRFPNELPIAGEPANIVALVEAYMNWLHQSPVPKLLFWGTPGVLIPPAEAARLAESLPNCKTVDIGPGLFMLQEDNPDLIGSEIARWLPAL",relatively unstable at temperatures above,[2],above 30 °C
